# Measured values: PubChem BioAssay AID445 (National Center for Advancing Translational Sciences (NCATS), 2006)
# The list shows a part of the results. The main result of the screen is listed elsewhere. These columns were measured beside it and carry no call. The list favours compounds with an active or inconclusive main result. The note in brackets gives the kind of curve behind each potency; many fits are weak.
# Assay: IkB Signaling
# Conditions: ABC-DLBCL IkBa-CBG/CBR dual luciferase ratio (green luciferase fused to IkBa over red control in OCI-Ly3 lymphoma cells), 4 h
# Summary of the method: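 Luminescence ratio of IκBα-fused green versus native red beetle luciferase in OCI-Ly3 cells, 4 h post-doxycycline with compound; red signal alone, scaled from basal (0%) to zero light (-100%), flagged nonspecific or cytotoxic effects.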
# [1] = measured here: control luc red channel unless noted
compound,measurement,setting,value
CCOC(=O)c1c(C)oc2nc(C)nc(N3CCN(c4cccc(C(F)(F)F)c4)CC3)c12,AC50,[1],"12.6 µM [falling, partial curve]"
COc1ccc(C2CC(=O)N(CC(=O)Nc3ccc(C(C)=O)cc3)c3ccccc3S2)cc1OC (centres undefined),AC50,[1],"12.6 µM [falling, partial curve]"
COc1ccc(CCC(=O)NC2CC(=O)N(c3ccccc3)C2)cc1 (centres undefined),AC50,[1],"0.0316 µM [rising, full curve, poor fit]"
Cc1ccc2[nH]c(CSc3nnc(NC(=O)COc4ccc(F)cc4)s3)cc(=O)c2c1,AC50,[1],"0.501 µM [falling, full curve]"
COCCn1c(CNc2ccc(F)cc2)nnc1SCC(=O)Nc1ccc(OC)cc1OC,AC50,[1],"25.1 µM [falling, single point]"
CC(C)(C)OC(=O)NCCCCCc1nnc(SCC(=O)Nc2cccc(Cl)c2)o1,AC50,[1],"12.6 µM [falling, partial curve]"
CCOC(=O)C1CCCCN1C(=O)CCc1c(C)nc2ncnn2c1C (centres undefined),AC50,[1],"0.398 µM [falling, full curve]"
COc1cc(Cl)c(C)cc1NC(=O)c1nn(C)c2c1CSc1ccccc1-2,AC50,[1],"25.1 µM [falling, single point]"
O=C(NCc1nc(-c2ccccc2)no1)c1ccco1,AC50,[1],"3.16 µM [rising, full curve]"
O=c1c2ccccc2nc(-c2ccccc2)n1CCCn1ccnc1,AC50,[1],"12.6 µM [rising, partial curve]"
CN(C)c1ccc(NC(=O)CN2CCN(S(=O)(=O)c3cc(Cl)ccc3Cl)CC2)cc1,AC50,[1],"20 µM [falling, partial curve]"
Cc1cc(=O)n2[nH]c(NC(=O)c3cccc(Cl)c3)nc2n1,AC50,[1],"20 µM [falling, partial curve]"
CC1=Nc2cc(C(=O)N3CCCCC3)ccc2Sc2ccc(C)cc21,AC50,[1],"31.6 µM [falling, partial curve]"
Cc1c(C(=O)NCc2ccc(OC(C)C)cc2)sc2ncnc(N(C)C3CCCCC3)c12,AC50,[1],"25.1 µM [falling, partial curve]"
O=S(=O)(c1ccc(Oc2ccc(Br)cc2)cc1)N1CCOCC1,AC50,[1],"6.31 µM [falling, partial curve]"
O=C(CSc1nccn1Cc1ccc(Cl)cc1)Nc1ccc2c(c1)OCO2,AC50,[1],"25.1 µM [falling, single point]"
O=C(Nc1ccc(Cl)c(C(F)(F)F)c1)C(Cc1ccccc1)NS(=O)(=O)c1cccc2nsnc12 (centres undefined),AC50,[1],"2.51 µM [falling, full curve]"
Cc1cc(C)cc(OCCSc2nc(-c3cccs3)nc3cc(=O)[nH]n23)c1,AC50,[1],"31.6 µM [falling, partial curve]"
CCC(Sc1nc2ncccc2o1)C(=O)Nc1cccc(C)c1 (centres undefined),AC50,[1],"3.98 µM [falling, partial curve]"
CCc1ccc(C2c3c(-c4ccccc4)n[nH]c3C(=O)N2c2ccc(C(=O)O)cc2)cc1 (centres undefined),AC50,[1],"7.94 µM [falling, partial curve]"
O=C(CN1N=C(c2ccccc2)CCC1=O)NCc1ccc(F)cc1Cl,AC50,[1],"25.1 µM [falling, partial curve]"
O=S(=O)(NCCc1csc2nc(-c3ccc(Cl)cc3)nn12)c1ccc2c(c1)OCCO2,AC50,[1],"39.8 µM [falling, single point]"
CC(C)c1ccc(NC(=O)CN2C(=O)COc3ccc(S(=O)(=O)N4CCOCC4)cc32)cc1,AC50,[1],"5.01 µM [rising, full curve]"
CCSC1=C(C#N)C(c2ccc(Cl)cc2)C2=C(CCCC2=O)N1 (centres undefined),AC50,[1],"39.8 µM [falling, single point]"
COCCn1c(N)c(C(=O)NCc2cccs2)c2nc3ccccc3nc21,AC50,[1],"10 µM [falling, partial curve]"
O=C(Nc1cccc(Cl)c1)c1cc(S(=O)(=O)N2CCC3(CC2)OCCO3)ccc1F,AC50,[1],"39.8 µM [falling, single point]"
CCN(CCCNC(=O)Cn1ncc2c3ccccc3n(C)c2c1=O)c1cccc(C)c1,AC50,[1],"39.8 µM [falling, single point]"
Cc1ccccc1C(=O)n1nc(-c2cccnc2)nc1NCc1ccc(F)cc1,AC50,[1],"20 µM [falling, partial curve]"
COc1ccc2cnn(CCOc3ccccc3)c(=O)c2c1OC,AC50,[1],"12.6 µM [falling, partial curve]"
CCOC(=O)c1ccccc1NC(=O)COc1cc(=O)n(CC)c2ccccc12,AC50,[1],"3.16 µM [falling, full curve]"
COc1ccc(Cl)cc1NC(=O)c1sc2nc3c(cc2c1N)CN(C)CC3,AC50,[1],"25.1 µM [falling, partial curve]"
O=C(CCC1N=C2c3ccccc3N=C(SCc3ccc(Cl)cc3)N2C1=O)NC1CCCCC1 (centres undefined),AC50,[1],"20 µM [falling, partial curve]"
O=C(COc1ccc2ccccc2c1Br)N1CCN(c2ccccn2)CC1,AC50,[1],"25.1 µM [falling, single point]"
Cc1ccc(-n2ncc3c(N4CCCCC4)ncnc32)cc1,AC50,[1],"31.6 µM [falling, partial curve]"
CC(C)C[C@H]1C(=O)N2CCC[C@@H]2[C@]2(O)O[C@](NC(=O)[C@H]3C=C4c5cccc6[nH]c(Br)c(c56)C[C@H]4N(C)C3)(C(C)C)C(=O)N12,AC50,measured here: IkB-luc green channel,"31.6 µM [falling, partial curve, poor fit]"
same,AC50,measured here: control luc red channel,"15.8 µM [falling, partial curve]"
O=C(CN1CCN(C2CCCCC2)C(=O)C1=O)Nc1ccc(Cl)cc1,AC50,[1],"12.6 µM [falling, partial curve]"
O=C1C=C(NCCc2cc(Br)c(O)c(Br)c2)C(=O)c2ncccc21,AC50,[1],"3.16 µM [falling, partial curve]"
Cc1ccc(C(=O)NC2CC3CCCC(C2)N3C(=O)NC2CCCCC2)cc1 (centres undefined),AC50,[1],"31.6 µM [falling, partial curve]"
Cc1noc(C)c1CSc1nc2ccccc2c(=O)n1-c1ccc(F)cc1F,AC50,[1],"39.8 µM [falling, single point]"
Cc1ccc(C(=O)c2sc(Nc3ccc(F)cc3)nc2N)c(C)c1,AC50,[1],"3.16 µM [falling, full curve]"
Cc1cc(C(=O)Nc2nnc(-c3ccccc3)s2)no1,AC50,[1],"0.501 µM [falling, full curve]"
COc1ccc(-c2nc(CNC(=O)NC3CCCCC3)c(C)o2)c(OC)c1,AC50,[1],"15.8 µM [falling, partial curve]"
CCOC(=O)c1cc2c(=O)n3ccccc3nc2n(Cc2ccco2)c1=NC(=O)c1ccc(F)cc1,AC50,[1],"12.6 µM [falling, partial curve]"
CCCCCCc1cc2cc(-c3cn4c(n3)sc3cc(OC)ccc34)c(=O)oc2cc1O,AC50,[1],"0.126 µM [falling, full curve]"
O=C(CN1C(=O)COc2ccc(S(=O)(=O)N3CCOCC3)cc21)N1CCN(c2ccc(Cl)cc2)CC1,AC50,[1],"39.8 µM [falling, single point]"
OC(CNc1nc2ccccc2s1)c1ccccc1 (centres undefined),AC50,[1],"7.94 µM [falling, full curve, poor fit]"
CCOC(=O)c1cccc(NC(=O)CC2C(=O)N(c3ccc(F)cc3)C(=O)N2Cc2cccc(OC)c2)c1 (centres undefined),AC50,[1],"12.6 µM [falling, partial curve]"
CCOC(=O)c1ccc(Nc2nc3ccccc3n3c(C)nnc23)cc1,AC50,[1],"5.01 µM [falling, full curve]"
CC(C)CN(CC(C)C)S(=O)(=O)c1ccc(C(=O)Nc2sc3c(c2C(N)=O)CCN(C(C)C)C3)cc1,AC50,[1],"25.1 µM [falling, partial curve]"
CCC(c1nnnn1C1CCCC1)N(Cc1cccs1)Cc1cc2cccc(C)c2[nH]c1=O (centres undefined),AC50,[1],"3.98 µM [falling, partial curve]"
CCOc1ccc(-c2noc(CSc3nnc(Cc4ccccc4)n3-c3ccc(F)cc3)n2)cc1,AC50,[1],"20 µM [falling, partial curve]"
Cc1cccc(N2CCN(c3ncnc4c3cnn4-c3ccc(Cl)cc3)CC2C)c1 (centres undefined),AC50,[1],"3.16 µM [falling, partial curve, poor fit]"
COc1cccc(C(=O)Nc2c3c(nn2-c2ccc(C)cc2C)CS(=O)(=O)C3)c1OC,AC50,[1],"3.16 µM [rising, partial curve]"
CCC(=O)Nc1ccccc1C(=O)OCc1cc(=O)n2cc(C)sc2n1,AC50,[1],"20 µM [falling, partial curve]"
CC(C)CCN1C(=O)c2ccccc2CC1(C)C(=O)NC1CCCCC1 (centres undefined),AC50,[1],"39.8 µM [falling, single point]"
CCN(CC)S(=O)(=O)c1cccc(-c2nnc(SCCOc3ccccc3C)o2)c1,AC50,[1],"15.8 µM [falling, partial curve]"
O=C(Nc1nc(-c2cc(Cl)sc2Cl)cs1)c1cccs1,AC50,[1],"15.8 µM [falling, partial curve]"
CC1CC(=O)N(CC(=O)Nc2ccc(OC(F)(F)F)cc2)c2ccccc2S1 (centres undefined),AC50,[1],"12.6 µM [falling, partial curve]"
CCCN1CCN(C(=O)Cn2ncc3c4ccccc4n(Cc4cccc(Cl)c4)c3c2=O)CC1,AC50,[1],"12.6 µM [falling, partial curve]"
Cc1cccc(N(C)C(=O)c2cc3c(=O)oc4ccc(C)cc4c3s2)c1,AC50,[1],"31.6 µM [rising, partial curve]"
O=C(Nc1c(C(=O)N2CCN(c3ccccc3)CC2)oc2ccccc12)c1ccccc1F,AC50,[1],"39.8 µM [falling, single point]"
Cc1ccc(CCNC(=O)c2cc3cc(S(=O)(=O)N4CCCCC4)ccc3n2C)cc1,AC50,[1],"5.01 µM [falling, partial curve]"
COc1ccc(-c2cc(C(=O)Nc3sc4c(c3C#N)CCCC4)no2)cc1OC,AC50,[1],"0.02 µM [rising, full curve, poor fit]"

# A stretch taken from the entries so far:
compound,measurement,setting,value
CN(C)c1ccc(NC(=O)CN2CCN(S(=O)(=O)c3cc(Cl)ccc3Cl)CC2)cc1,AC50,[1],"20 µM [falling, partial curve]"
Cc1cc(=O)n2[nH]c(NC(=O)c3cccc(Cl)c3)nc2n1,AC50,[1],"20 µM [falling, partial curve]"
CC1=Nc2cc(C(=O)N3CCCCC3)ccc2Sc2ccc(C)cc21,AC50,[1],"31.6 µM [falling, partial curve]"
Cc1c(C(=O)NCc2ccc(OC(C)C)cc2)sc2ncnc(N(C)C3CCCCC3)c12,AC50,[1],"25.1 µM [falling, partial curve]"
O=S(=O)(c1ccc(Oc2ccc(Br)cc2)cc1)N1CCOCC1,AC50,[1],"6.31 µM [falling, partial curve]"
O=C(CSc1nccn1Cc1ccc(Cl)cc1)Nc1ccc2c(c1)OCO2,AC50,[1],"25.1 µM [falling, single point]"
O=C(Nc1ccc(Cl)c(C(F)(F)F)c1)C(Cc1ccccc1)NS(=O)(=O)c1cccc2nsnc12 (centres undefined),AC50,[1],"2.51 µM [falling, full curve]"
Cc1cc(C)cc(OCCSc2nc(-c3cccs3)nc3cc(=O)[nH]n23)c1,AC50,[1],"31.6 µM [falling, partial curve]"
CCC(Sc1nc2ncccc2o1)C(=O)Nc1cccc(C)c1 (centres undefined),AC50,[1],"3.98 µM [falling, partial curve]"
CCc1ccc(C2c3c(-c4ccccc4)n[nH]c3C(=O)N2c2ccc(C(=O)O)cc2)cc1 (centres undefined),AC50,[1],"7.94 µM [falling, partial curve]"
O=C(CN1N=C(c2ccccc2)CCC1=O)NCc1ccc(F)cc1Cl,AC50,[1],"25.1 µM [falling, partial curve]"
